Measurements as given in publication PMC2778012.
Results are given in words; binding and its absence hold for the method and conditions named. In cells and extracts the contact can be indirect. Binding calls can cover weak binding; strength is not graded here.

Chains of the proteins cited; added tags and fusions are not shown. Lines headed by an entry give the natural chain unless they say otherwise; changes in a name come on top. A line that says so, or that is headed by a name, gives the form on record, which may keep a tag or linker.
UniProt Q8C6B2: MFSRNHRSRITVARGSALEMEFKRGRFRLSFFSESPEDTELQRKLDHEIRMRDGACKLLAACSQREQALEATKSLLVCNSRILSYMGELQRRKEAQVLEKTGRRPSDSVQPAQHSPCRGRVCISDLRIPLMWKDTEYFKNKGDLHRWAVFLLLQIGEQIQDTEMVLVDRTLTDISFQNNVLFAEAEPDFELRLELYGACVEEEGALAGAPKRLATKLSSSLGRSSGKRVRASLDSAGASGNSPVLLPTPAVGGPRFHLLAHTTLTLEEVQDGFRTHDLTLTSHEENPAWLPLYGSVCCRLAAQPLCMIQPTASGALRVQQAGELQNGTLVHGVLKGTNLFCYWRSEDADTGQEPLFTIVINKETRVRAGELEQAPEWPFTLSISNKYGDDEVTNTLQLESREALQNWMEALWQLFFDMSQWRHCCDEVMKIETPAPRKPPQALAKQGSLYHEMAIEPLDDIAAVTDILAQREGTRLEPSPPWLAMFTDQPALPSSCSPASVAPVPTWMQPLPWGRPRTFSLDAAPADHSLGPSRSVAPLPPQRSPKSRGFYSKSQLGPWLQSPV
UniProt P61586: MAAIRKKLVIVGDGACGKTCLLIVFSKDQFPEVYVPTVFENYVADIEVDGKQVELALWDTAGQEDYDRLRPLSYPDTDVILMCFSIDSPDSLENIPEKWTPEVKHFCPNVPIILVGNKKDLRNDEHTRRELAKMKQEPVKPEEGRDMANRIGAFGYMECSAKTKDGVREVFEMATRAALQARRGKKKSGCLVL
C16/20A myc-RhoA (non-targeted) (P61586, form named): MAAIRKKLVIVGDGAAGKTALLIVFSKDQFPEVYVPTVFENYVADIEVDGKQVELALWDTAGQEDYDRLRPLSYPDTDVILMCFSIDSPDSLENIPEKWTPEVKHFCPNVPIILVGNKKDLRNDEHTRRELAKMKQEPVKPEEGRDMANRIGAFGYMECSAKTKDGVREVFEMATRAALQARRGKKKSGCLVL
UniProt P61589: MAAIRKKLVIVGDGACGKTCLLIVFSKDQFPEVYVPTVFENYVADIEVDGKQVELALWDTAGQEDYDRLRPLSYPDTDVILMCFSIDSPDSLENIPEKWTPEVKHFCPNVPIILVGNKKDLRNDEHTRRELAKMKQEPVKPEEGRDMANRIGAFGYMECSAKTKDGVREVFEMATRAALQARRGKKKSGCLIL

Target: glutathione S-transferase (GST)-Rho binding domain (RBD) of Rhotekin (UniProt Q8C6B2)
Assay: pull-down; RhoA activity assay: clarified cell lysates (Buffer A: 50 mM Tris pH 7.6, 500 mM NaCl, 1% Triton X-100, 0.1% SDS, 0.5% deoxycholate, 10 mM MgCl2) incubated with GST-RBD beads, washed three times with ice-cold Buffer B, bound fraction blotted with anti-RhoA or myc antibody; cells serum-starved or in serum, treated with peroxide (0.1-10 uM), washout, antimycin A with or without NAC, FBS or thrombin; only the target purified

binding, binds:
C16/20A myc-RhoA (non-targeted) (from UniProt P61586 1-193)
endogenous RhoA (from UniProt P61589 1-193)
wt myc-RhoA (non-targeted) (from UniProt P61586 1-193)
